Experimental data: PubChem BioAssay AID1259308 (NCATS, 2017)

Test: 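Candidate targets for better recombinant protein yield in mammalian cells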 (primary screen)
Cells: human HEK293 embryonic kidney cells stably expressing firefly luciferase (HEK-CMV-Luc2-Hygro)
Reagent: single siRNA against human genes, 0.8 pmol siRNA per well
Duration: 72 h
Measurement: 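Luciferase light (ONE-Glo) measured on one replicate plate set and viability (CellTiter-Glo) on the other, scaled to a negative control siRNA, with robust z-scores and luciferase per cell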
Direction: total luciferase, z-score: higher = more reporter protein produced
Call rule: 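Active when the median/MAD z-score for overall luciferase is greater than 3; a gene was taken forward for validation with new siRNAs if at least two of its three siRNAs passed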
Meaning of the calls: active = raised luciferase; inactive = no rise
The deposit covers about 59,000 reagents; shown is an unselected part. Over the whole deposit, about 1,510 (2.6%) got an active call. 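Calls use total luciferase alone and ignore viability, so some active siRNAs may act by altering cell number.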 Reagents against one gene are numbered here. Not all columns of the deposit are shown.

{"gene": "FAM187B (family with sequence similarity 187 member B)", "reagent no.": 1, "total luciferase, z-score": -0.385, "outcome": "inactive"}
{"gene": "FAM187B (family with sequence similarity 187 member B)", "reagent no.": 2, "total luciferase, z-score": 1.25, "outcome": "inactive"}
{"gene": "FAM187B (family with sequence similarity 187 member B)", "reagent no.": 3, "total luciferase, z-score": -1.33, "outcome": "inactive"}
{"gene": "SATB1 (SATB homeobox 1)", "reagent no.": 1, "total luciferase, z-score": 1.09, "outcome": "inactive"}
{"gene": "SATB1 (SATB homeobox 1)", "reagent no.": 2, "total luciferase, z-score": -0.558, "outcome": "inactive"}
{"gene": "SATB1 (SATB homeobox 1)", "reagent no.": 3, "total luciferase, z-score": 0.104, "outcome": "inactive"}
{"gene": "TIE1", "reagent no.": 1, "total luciferase, z-score": 0.638, "outcome": "inactive"}
{"gene": "TIE1", "reagent no.": 2, "total luciferase, z-score": -0.0471, "outcome": "inactive"}
{"gene": "TIE1", "reagent no.": 3, "total luciferase, z-score": 0.538, "outcome": "inactive"}
{"gene": "CYP39A1 (cytochrome P450 family 39 subfamily A member 1)", "reagent no.": 1, "total luciferase, z-score": -1, "outcome": "inactive"}
{"gene": "CYP39A1 (cytochrome P450 family 39 subfamily A member 1)", "reagent no.": 2, "total luciferase, z-score": 2.75, "outcome": "inactive"}
{"gene": "CYP39A1 (cytochrome P450 family 39 subfamily A member 1)", "reagent no.": 3, "total luciferase, z-score": 0.148, "outcome": "inactive"}

Taken from above:
Entry of TIE1 #2 under “outcome”: inactive
Result for SATB1 (SATB homeobox 1) #1 in “outcome”: inactive
